Experimental findings from PMC7862700 are described below.

Common to all, as to experiment: DAPPL (digital affinity profiling via proximity ligation, sequencing)
What all share (conditions): 10 mM Tris-HCl pH 7.5, 50 mM NaCl, 1 mM DTT, 4% glycerol, room temperature, 30 min; GST-TFs on glutathione beads, 16-mer random dsDNA library, 0.1% …; high values mean tight binding; double strand, one strand shown; scale: fold enrichment (6-mer frequency, TF over GST control)

One experiment has as its target T1, GABPA (UniProt Q06546).
T1 sequence: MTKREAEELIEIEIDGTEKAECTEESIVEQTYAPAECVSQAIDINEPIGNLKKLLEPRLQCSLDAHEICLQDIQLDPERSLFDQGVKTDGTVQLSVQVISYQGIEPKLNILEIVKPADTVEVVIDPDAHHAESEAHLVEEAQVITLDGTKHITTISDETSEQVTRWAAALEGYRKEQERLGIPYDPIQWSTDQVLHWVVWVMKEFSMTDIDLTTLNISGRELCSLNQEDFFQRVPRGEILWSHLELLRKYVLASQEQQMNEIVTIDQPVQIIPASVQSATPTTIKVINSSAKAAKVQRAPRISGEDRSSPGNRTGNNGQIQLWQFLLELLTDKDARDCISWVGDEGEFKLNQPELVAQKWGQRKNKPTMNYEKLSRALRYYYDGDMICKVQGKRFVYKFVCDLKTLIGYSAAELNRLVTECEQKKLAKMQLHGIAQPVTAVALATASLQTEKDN

The target of another experiment is T2, ETS1 (UniProt P14921).
T2 sequence: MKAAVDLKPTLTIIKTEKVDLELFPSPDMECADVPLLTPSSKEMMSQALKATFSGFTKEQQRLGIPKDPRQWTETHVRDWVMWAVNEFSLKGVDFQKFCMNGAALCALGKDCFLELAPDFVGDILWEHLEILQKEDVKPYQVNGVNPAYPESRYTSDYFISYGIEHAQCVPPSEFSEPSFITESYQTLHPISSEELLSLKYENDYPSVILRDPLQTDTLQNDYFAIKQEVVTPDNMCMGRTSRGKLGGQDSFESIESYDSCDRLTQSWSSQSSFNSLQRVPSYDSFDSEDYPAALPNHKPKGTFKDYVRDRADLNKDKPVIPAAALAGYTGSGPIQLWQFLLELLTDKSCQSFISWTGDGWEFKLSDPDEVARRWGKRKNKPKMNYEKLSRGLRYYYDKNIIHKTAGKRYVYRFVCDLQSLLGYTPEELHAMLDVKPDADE

For another experiment, the target named is T3, SPDEF (UniProt O95238).
T3 sequence: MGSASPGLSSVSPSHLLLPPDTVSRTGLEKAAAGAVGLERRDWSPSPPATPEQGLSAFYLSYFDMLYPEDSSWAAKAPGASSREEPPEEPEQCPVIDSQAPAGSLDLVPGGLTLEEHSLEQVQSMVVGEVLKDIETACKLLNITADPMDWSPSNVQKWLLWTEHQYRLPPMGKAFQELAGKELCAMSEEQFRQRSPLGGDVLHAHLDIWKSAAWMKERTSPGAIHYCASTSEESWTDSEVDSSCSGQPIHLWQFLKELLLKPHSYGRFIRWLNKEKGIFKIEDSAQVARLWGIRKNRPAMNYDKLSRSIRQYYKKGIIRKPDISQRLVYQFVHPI

The entries are a selection whose mix differs from that of the whole data set. For some of these results: At the low end of the ranking the order means little. Some of the results follow. For some of these results: The source does not settle which construct or isoform was used.

Regarding GGACAG, the binding signal with GABPA stood at 0.585; in the experiment with ETS1, 0.548; in the experiment with SPDEF it was 0.613.

CGGGAT: the figures for the binding signal with GABPA, in the experiment with ETS1 and with SPDEF were 0.605, 0.64 and 0.877, respectively.

Regarding GGAGGT, the binding signal with GABPA came out at 0.346; with ETS1 it was 0.312; with SPDEF, 0.355.

For the sequence GATCCG, the binding signal was found to be 0.995 with GABPA and 0.899 in the experiment with ETS1.

For the sequence CGGAAT, the figures for the binding signal with GABPA and with ETS1 were 0.833 and 0.925, respectively.

For the sequence AGACCG, the binding signal was 0.505 with GABPA, 0.451 with ETS1 and 0.484 with SPDEF.

As for GAAGAG, the figures for the binding signal with GABPA, with ETS1 and with SPDEF were 0.935, 0.837 and 0.81, respectively.

Consider CGGGTT, for which the binding signal in the experiment with GABPA was 0.833; with ETS1, 0.928.

For the sequence TGTAGT, the binding signal came to 0.961 with GABPA and 0.925 with ETS1.

On to GGACGC, for which the binding signal stood at 0.427 with GABPA, 0.364 with ETS1 and 0.427 with SPDEF.

Regarding GGGAGA, the binding signal was 0.342 with GABPA, 0.311 with ETS1 and 0.303 with SPDEF.

As to GATCGG, the binding signal with GABPA is 0.485; with ETS1, 0.491; with SPDEF it was 0.44.

As to GAGAGC, the binding signal with GABPA is 0.347; with ETS1 it was 0.371; in the experiment with SPDEF it was 0.314.

With GAAGGC, the binding signal with GABPA was determined as 0.896; with ETS1 it was 0.78; with SPDEF, 0.842.

Consider ATGAGA, for which the figures for the binding signal in the experiment with GABPA, in the experiment with ETS1 and with SPDEF were 0.888, 0.922 and 0.802, respectively.

For AGGCGG, the binding signal worked out at 0.249 with GABPA, 0.256 with ETS1 and 0.263 in the experiment with SPDEF.

With CGAGGG, the binding signal is 0.708 with GABPA, 0.682 with ETS1 and 0.603 in the experiment with SPDEF.

As to GGACCG, the binding signal with GABPA came to 0.784; with ETS1 it was 0.817; in the experiment with SPDEF, 0.846.

Regarding GTACGG, the binding signal was 0.781 in the experiment with GABPA, 0.841 with ETS1 and 0.833 with SPDEF.

In the case of CGCGGA, the binding signal with GABPA came out at 0.903; in the experiment with ETS1, 0.931.

As to GGATGA, the figures for the binding signal in the experiment with GABPA and in the experiment with ETS1 were 0.998 and 1.06, respectively.

With AGTTCG, the values for the binding signal in the experiment with GABPA, with ETS1 and in the experiment with SPDEF were 0.76, 0.828 and 0.653, respectively.

As for GTGCGG, the binding signal with GABPA was determined as 0.623; with ETS1, 0.649; with SPDEF, 0.614.

For the sequence AGCGGA, the binding signal with GABPA came to 0.81; with ETS1, 0.793; with SPDEF, 0.81.

As for GCGTCG, the binding signal was found to be 0.767 in the experiment with GABPA, 0.794 with ETS1 and 0.721 in the experiment with SPDEF.

For the sequence CATAGG, the binding signal was found to be 0.728 with GABPA, 0.708 in the experiment with ETS1 and 0.747 with SPDEF.

On to CCAGGG, for which the binding signal came to 0.627 with GABPA, 0.566 with ETS1 and 0.561 with SPDEF.

With GTGAAT, the figures for the binding signal with GABPA, with ETS1 and with SPDEF were 0.872, 0.834 and 0.771, respectively.

For the sequence GCATAT, the binding signal was 0.975 with GABPA and 0.998 with ETS1.

Regarding CGGTAC, the binding signal in the experiment with GABPA turned out to be 0.939; with ETS1, 0.988.

As for GGCGCT, the binding signal with GABPA is 0.831; in the experiment with ETS1, 0.695; in the experiment with SPDEF it was 0.651.

For the sequence TGGGGC, the values for the binding signal in the experiment with GABPA, in the experiment with ETS1 and with SPDEF were 0.817, 0.874 and 0.776, respectively.

For the sequence GCAAGG, the figures for the binding signal with GABPA, with ETS1 and with SPDEF were 0.771, 0.857 and 0.735, respectively.
